# Assay results from PMC4455066.
# Results are given in words; binding and its absence hold for the method and conditions named. Binding seen in cells or lysates may run through a third protein. A yes stands for co-enrichment or nearness to the bait. Other partners may have been found. For some assays here: Where a sequence is shown, tags or fusion partners need not be part of it.
# T1: Cbc1, tandem affinity tagged (bait) (S. pombe) (UniProt O14253)
# T1 sequence: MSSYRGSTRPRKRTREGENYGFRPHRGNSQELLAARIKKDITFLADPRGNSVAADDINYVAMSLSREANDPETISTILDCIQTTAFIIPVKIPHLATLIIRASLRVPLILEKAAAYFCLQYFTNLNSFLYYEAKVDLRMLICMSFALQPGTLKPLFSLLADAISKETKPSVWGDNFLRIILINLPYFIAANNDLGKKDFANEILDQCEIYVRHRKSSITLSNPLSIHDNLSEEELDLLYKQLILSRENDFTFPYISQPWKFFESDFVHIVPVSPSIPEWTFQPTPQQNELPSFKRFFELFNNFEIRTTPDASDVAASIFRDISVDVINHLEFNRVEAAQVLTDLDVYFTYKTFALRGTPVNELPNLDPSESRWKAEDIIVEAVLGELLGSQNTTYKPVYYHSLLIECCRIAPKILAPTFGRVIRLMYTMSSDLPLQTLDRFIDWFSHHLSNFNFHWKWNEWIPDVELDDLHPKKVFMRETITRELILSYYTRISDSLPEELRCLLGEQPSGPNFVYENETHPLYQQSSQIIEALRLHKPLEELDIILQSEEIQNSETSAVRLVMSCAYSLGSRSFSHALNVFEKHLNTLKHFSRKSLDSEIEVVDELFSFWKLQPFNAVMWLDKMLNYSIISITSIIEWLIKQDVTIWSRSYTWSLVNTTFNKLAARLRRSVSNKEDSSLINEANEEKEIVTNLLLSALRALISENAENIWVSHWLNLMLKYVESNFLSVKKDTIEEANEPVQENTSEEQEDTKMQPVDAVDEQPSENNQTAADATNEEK
# T2: Ars2, tandem affinity tagged (bait) (S. pombe) (UniProt O94326)
# T2 sequence: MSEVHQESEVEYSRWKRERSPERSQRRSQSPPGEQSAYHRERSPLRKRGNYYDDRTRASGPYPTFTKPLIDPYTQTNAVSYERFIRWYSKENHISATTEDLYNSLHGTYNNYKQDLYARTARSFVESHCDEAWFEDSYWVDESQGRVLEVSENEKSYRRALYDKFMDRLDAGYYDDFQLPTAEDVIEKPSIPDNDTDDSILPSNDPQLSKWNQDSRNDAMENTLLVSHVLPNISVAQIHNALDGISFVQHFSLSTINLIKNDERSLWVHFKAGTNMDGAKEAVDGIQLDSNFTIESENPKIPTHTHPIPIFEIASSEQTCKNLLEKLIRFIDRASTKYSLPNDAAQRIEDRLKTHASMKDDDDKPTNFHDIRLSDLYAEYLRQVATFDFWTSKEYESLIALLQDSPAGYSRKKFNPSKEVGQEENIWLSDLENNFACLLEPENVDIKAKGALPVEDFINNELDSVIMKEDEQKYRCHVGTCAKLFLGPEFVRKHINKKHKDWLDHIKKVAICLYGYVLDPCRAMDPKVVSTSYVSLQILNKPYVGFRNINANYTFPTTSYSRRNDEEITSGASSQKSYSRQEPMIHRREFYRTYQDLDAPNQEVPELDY
# T3: Red1–FTP (S. pombe) (UniProt Q9UTR8)
# T3 sequence: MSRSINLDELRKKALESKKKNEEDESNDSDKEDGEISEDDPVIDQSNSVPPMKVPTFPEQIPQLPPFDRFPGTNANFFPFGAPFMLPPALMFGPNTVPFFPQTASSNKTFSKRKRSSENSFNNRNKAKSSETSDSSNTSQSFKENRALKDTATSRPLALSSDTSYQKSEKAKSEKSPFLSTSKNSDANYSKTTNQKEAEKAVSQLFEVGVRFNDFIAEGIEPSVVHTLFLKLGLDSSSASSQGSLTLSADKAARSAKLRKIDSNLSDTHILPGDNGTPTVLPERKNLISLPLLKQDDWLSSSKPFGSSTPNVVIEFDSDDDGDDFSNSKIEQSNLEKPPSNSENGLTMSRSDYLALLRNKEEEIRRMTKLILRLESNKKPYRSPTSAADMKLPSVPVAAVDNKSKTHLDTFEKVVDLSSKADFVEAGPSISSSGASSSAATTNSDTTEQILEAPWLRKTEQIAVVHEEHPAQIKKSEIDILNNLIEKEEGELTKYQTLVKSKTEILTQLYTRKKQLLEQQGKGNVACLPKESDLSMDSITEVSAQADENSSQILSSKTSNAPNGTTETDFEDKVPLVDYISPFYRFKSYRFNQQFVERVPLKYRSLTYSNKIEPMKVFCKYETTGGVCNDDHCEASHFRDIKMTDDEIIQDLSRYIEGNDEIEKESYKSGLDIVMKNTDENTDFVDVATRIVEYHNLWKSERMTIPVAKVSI
# T4: Pab2, split-tag bait (second purification step) (S. pombe) (UniProt O14327)
# T4 sequence: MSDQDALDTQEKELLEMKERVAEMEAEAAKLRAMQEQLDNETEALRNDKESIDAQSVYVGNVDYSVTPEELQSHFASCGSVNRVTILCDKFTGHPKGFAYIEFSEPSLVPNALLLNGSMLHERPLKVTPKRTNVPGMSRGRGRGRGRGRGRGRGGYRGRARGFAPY
# T5: Cbc1, split-tag bait (second purification step) (S. pombe) (UniProt O14253)
# T5 sequence: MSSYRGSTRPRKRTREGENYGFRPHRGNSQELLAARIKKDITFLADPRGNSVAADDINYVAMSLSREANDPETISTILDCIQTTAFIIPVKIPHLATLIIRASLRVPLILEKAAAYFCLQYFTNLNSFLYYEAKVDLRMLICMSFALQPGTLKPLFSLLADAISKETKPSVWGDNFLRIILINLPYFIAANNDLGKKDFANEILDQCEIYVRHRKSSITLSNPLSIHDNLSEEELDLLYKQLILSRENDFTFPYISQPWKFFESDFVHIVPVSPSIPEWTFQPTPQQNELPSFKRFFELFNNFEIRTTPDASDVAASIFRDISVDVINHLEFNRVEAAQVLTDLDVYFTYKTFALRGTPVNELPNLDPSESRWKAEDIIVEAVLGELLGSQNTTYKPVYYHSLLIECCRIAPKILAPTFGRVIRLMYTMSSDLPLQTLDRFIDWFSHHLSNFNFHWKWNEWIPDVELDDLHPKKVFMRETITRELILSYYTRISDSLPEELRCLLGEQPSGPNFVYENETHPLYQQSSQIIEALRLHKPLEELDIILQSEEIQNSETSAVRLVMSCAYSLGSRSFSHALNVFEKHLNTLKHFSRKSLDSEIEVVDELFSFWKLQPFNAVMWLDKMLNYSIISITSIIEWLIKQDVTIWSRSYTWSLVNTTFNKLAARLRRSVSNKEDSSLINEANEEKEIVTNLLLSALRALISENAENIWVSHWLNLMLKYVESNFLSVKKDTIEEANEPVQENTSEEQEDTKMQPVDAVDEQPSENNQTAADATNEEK
# Columns and labels:
# [1] = target: T1, Cbc1, tandem affinity tagged (bait) (S. pombe); assay: affinity purification with mass spectrometry; tandem affinity purification of an FTP-tagged bait from S. pombe cell extract (IgG beads, TEV cleavage with Benzonase, anti-Flag beads, Flag peptide elution); 50 mM HEPES pH 7.0, 100 mM NaCl, 1.5 mM MgCl2, 0.15% NP-40; MALDI-TOF of single bands and LC-MS/MS of the whole eluate; wild-type cells, also red1Δ and rmn1Δ backgrounds
# [2] = target: T2, Ars2, tandem affinity tagged (bait) (S. pombe); assay: as above
# Red5–FTP (S. pombe) = assay: as above
# Mtl1–FTP (S. pombe) = assay: as above
# Red1–FTP (S. pombe) = target: T3, Red1–FTP (S. pombe); assay: as above
# [3] = target: Iss10, split-tag bait (second purification step) (S. pombe); assay: affinity purification with mass spectrometry; split-tag purification: first step by Mtl1, second step by Iss10, Cbc1 or Pab2; from S. pombe cell extract
# [4] = target: Mtl1, split-tag bait (first purification step) (S. pombe); assay: as above
# [5] = target: T4, Pab2, split-tag bait (second purification step) (S. pombe); assay: as above
# [6] = target: T5, Cbc1, split-tag bait (second purification step) (S. pombe); assay: as above
Molecule,binding [1],binding [2],binding (Red5–FTP (S. pombe)),binding (Mtl1–FTP (S. pombe)),binding (Red1–FTP (S. pombe)),binding [3],binding [4],binding [5],binding [6]
MTREC complex (S. pombe),binds,binds,,,,,,,
"Cbc2 (protein, UniProt Q9P383 1-182) MASITRLDAVSPYLIRRFKNDLRALDAVKQSNCVYVGNLSFYTTEEQIYALFSKCGEIRRIIMGVDRFTKTPCGFCFVEYFENQDALDSLKYISRTSLDERIIRADLDHGYEEGRQYGRGASGGQVRDEMREEFDPGRGGYAKNRQPTSSRQLANYSGISSAPLGSSLELQSNPRYNRWKKN",binds,binds,binds,binds,binds,binds,binds,binds,binds

# More lines, now with the values ahead:
binding [1],binding [2],binding (Red5–FTP (S. pombe)),binding (Mtl1–FTP (S. pombe)),binding (Red1–FTP (S. pombe)),binding [3],binding [4],binding [5],binding [6],Molecule
,binds,binds,binds,binds,binds,binds,binds,,"Cbc1 (protein, UniProt O14253 1-780) MSSYRGSTRPRKRTREGENYGFRPHRGNSQELLAARIKKDITFLADPRGNSVAADDINYVAMSLSREANDPETISTILDCIQTTAFIIPVKIPHLATLIIRASLRVPLILEKAAAYFCLQYFTNLNSFLYYEAKVDLRMLICMSFALQPGTLKPLFSLLADAISKETKPSVWGDNFLRIILINLPYFIAANNDLGKKDFANEILDQCEIYVRHRKSSITLSNPLSIHDNLSEEELDLLYKQLILSRENDFTFPYISQPWKFFESDFVHIVPVSPSIPEWTFQPTPQQNELPSFKRFFELFNNFEIRTTPDASDVAASIFRDISVDVINHLEFNRVEAAQVLTDLDVYFTYKTFALRGTPVNELPNLDPSESRWKAEDIIVEAVLGELLGSQNTTYKPVYYHSLLIECCRIAPKILAPTFGRVIRLMYTMSSDLPLQTLDRFIDWFSHHLSNFNFHWKWNEWIPDVELDDLHPKKVFMRETITRELILSYYTRISDSLPEELRCLLGEQPSGPNFVYENETHPLYQQSSQIIEALRLHKPLEELDIILQSEEIQNSETSAVRLVMSCAYSLGSRSFSHALNVFEKHLNTLKHFSRKSLDSEIEVVDELFSFWKLQPFNAVMWLDKMLNYSIISITSIIEWLIKQDVTIWSRSYTWSLVNTTFNKLAARLRRSVSNKEDSSLINEANEEKEIVTNLLLSALRALISENAENIWVSHWLNLMLKYVESNFLSVKKDTIEEANEPVQENTSEEQEDTKMQPVDAVDEQPSENNQTAADATNEEK"
binds,,binds,binds,binds,binds,binds,binds,binds,"Ars2 (protein, UniProt O94326 1-609) MSEVHQESEVEYSRWKRERSPERSQRRSQSPPGEQSAYHRERSPLRKRGNYYDDRTRASGPYPTFTKPLIDPYTQTNAVSYERFIRWYSKENHISATTEDLYNSLHGTYNNYKQDLYARTARSFVESHCDEAWFEDSYWVDESQGRVLEVSENEKSYRRALYDKFMDRLDAGYYDDFQLPTAEDVIEKPSIPDNDTDDSILPSNDPQLSKWNQDSRNDAMENTLLVSHVLPNISVAQIHNALDGISFVQHFSLSTINLIKNDERSLWVHFKAGTNMDGAKEAVDGIQLDSNFTIESENPKIPTHTHPIPIFEIASSEQTCKNLLEKLIRFIDRASTKYSLPNDAAQRIEDRLKTHASMKDDDDKPTNFHDIRLSDLYAEYLRQVATFDFWTSKEYESLIALLQDSPAGYSRKKFNPSKEVGQEENIWLSDLENNFACLLEPENVDIKAKGALPVEDFINNELDSVIMKEDEQKYRCHVGTCAKLFLGPEFVRKHINKKHKDWLDHIKKVAICLYGYVLDPCRAMDPKVVSTSYVSLQILNKPYVGFRNINANYTFPTTSYSRRNDEEITSGASSQKSYSRQEPMIHRREFYRTYQDLDAPNQEVPELDY"
